Literature values as cited in patent US20090264383A1, “Inhibitor of Adenylyl Cyclase for Treating a Disorder of the Circadian Rhythm” (Medical Research Council, priority 2006, published 2009).
At least one compound was matched to its structure with a doubt left.

Tested on: mouse behavioural rhythms
Details: cited from earlier work

## [Li] [Lithium]
Lithium treatment, whole animals
  circadian period: approximately 25 hours
lithium, mouse behavioural rhythms
  increase in circadian period: ~30 min
